Record: PubChem BioAssay AID1508597 (Cure First, 2020)
Assay: 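Knock-downs altering ovarian cancer cell survival with or without PARP inhibitor rucaparib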 (primary screen). Cell system: human ovarian carcinoma lines grown from tumours: OCI-P5x (papillary serous) and OCI-C5x (clear cell). Reagents: siRNA pool against human genes, 1.25 pmol siRNA per well. Time to read-out: 72 h or 96 h, depending on the cell culture. Challenge: rucaparib 20 µM (about IC30) or vehicle, present until read-out. Read-out: 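ATP luminescence measured at 72 or 96 h according to the culture, then normalised and expressed as percent viability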. Direction: viability, normalised: higher = more viable cells remaining. Call rule: 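a well counts as a hit if its normalised viability is under 80 percent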. Calls: active = viability under 80%; inactive = viability 80% or more.
Here is a random part of about 2,100 reagents. 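Calls flag viability under 80% in either arm, not effects specific to rucaparib; the reference for percent is not stated.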 No sequences are given here. Not given: the 100% reference.

| target | rucaparib or vehicle | cell line | technical replicate | viability, normalised (%) | outcome |
| --- | --- | --- | --- | --- | --- |
| POLD3 (DNA polymerase delta 3, accessory subunit) | Rucaparib | OCI-C5x (clear cell) | 1 | 58.1 | active |
| POLD3 (DNA polymerase delta 3, accessory subunit) | Rucaparib | OCI-C5x (clear cell) | 2 | 66.5 | active |
| POLD3 (DNA polymerase delta 3, accessory subunit) | Rucaparib | OCI-C5x (clear cell) | 3 | 60.6 | active |
| POLD3 (DNA polymerase delta 3, accessory subunit) | Rucaparib | OCI-P5x (serous) | 1 | 74.4 | active |
| POLD3 (DNA polymerase delta 3, accessory subunit) | Rucaparib | OCI-P5x (serous) | 2 | 77.8 | active |
| POLD3 (DNA polymerase delta 3, accessory subunit) | Rucaparib | OCI-P5x (serous) | 3 | 63.7 | active |
| POLD3 (DNA polymerase delta 3, accessory subunit) | Vehicle | OCI-C5x (clear cell) | 1 | 45.5 | active |
| POLD3 (DNA polymerase delta 3, accessory subunit) | Vehicle | OCI-C5x (clear cell) | 2 | 45.4 | active |
| POLD3 (DNA polymerase delta 3, accessory subunit) | Vehicle | OCI-C5x (clear cell) | 3 | 55.4 | active |
| POLD3 (DNA polymerase delta 3, accessory subunit) | Vehicle | OCI-P5x (serous) | 1 | 72.2 | active |
| POLD3 (DNA polymerase delta 3, accessory subunit) | Vehicle | OCI-P5x (serous) | 2 | 76.5 | active |
| POLD3 (DNA polymerase delta 3, accessory subunit) | Vehicle | OCI-P5x (serous) | 3 | 69.2 | active |
| CLDN3 (claudin 3) | Rucaparib | OCI-C5x (clear cell) | 1 | 43.6 | active |
| CLDN3 (claudin 3) | Rucaparib | OCI-C5x (clear cell) | 2 | 45.1 | active |
| CLDN3 (claudin 3) | Rucaparib | OCI-C5x (clear cell) | 3 | 46.3 | active |
| CLDN3 (claudin 3) | Rucaparib | OCI-P5x (serous) | 1 | 56.6 | active |
| CLDN3 (claudin 3) | Rucaparib | OCI-P5x (serous) | 2 | 55.3 | active |
| CLDN3 (claudin 3) | Rucaparib | OCI-P5x (serous) | 3 | 42.8 | active |
| CLDN3 (claudin 3) | Vehicle | OCI-C5x (clear cell) | 1 | 46.1 | active |
| CLDN3 (claudin 3) | Vehicle | OCI-C5x (clear cell) | 2 | 48.6 | active |
| CLDN3 (claudin 3) | Vehicle | OCI-C5x (clear cell) | 3 | 53.5 | active |
| CLDN3 (claudin 3) | Vehicle | OCI-P5x (serous) | 1 | 66.8 | active |
| CLDN3 (claudin 3) | Vehicle | OCI-P5x (serous) | 2 | 73 | active |
| CLDN3 (claudin 3) | Vehicle | OCI-P5x (serous) | 3 | 69.7 | active |

The list goes on (7 carried over from the part before).
| target | rucaparib or vehicle | cell line | technical replicate | viability, normalised (%) | outcome |
| --- | --- | --- | --- | --- | --- |
| CLDN3 (claudin 3) | Rucaparib | OCI-P5x (serous) | 3 | 42.8 | active |
| CLDN3 (claudin 3) | Vehicle | OCI-C5x (clear cell) | 1 | 46.1 | active |
| CLDN3 (claudin 3) | Vehicle | OCI-C5x (clear cell) | 2 | 48.6 | active |
| CLDN3 (claudin 3) | Vehicle | OCI-C5x (clear cell) | 3 | 53.5 | active |
| CLDN3 (claudin 3) | Vehicle | OCI-P5x (serous) | 1 | 66.8 | active |
| CLDN3 (claudin 3) | Vehicle | OCI-P5x (serous) | 2 | 73 | active |
| CLDN3 (claudin 3) | Vehicle | OCI-P5x (serous) | 3 | 69.7 | active |
| MEMO1 (mediator of cell motility 1) | Rucaparib | OCI-C5x (clear cell) | 1 | 44.6 | active |
| MEMO1 (mediator of cell motility 1) | Rucaparib | OCI-C5x (clear cell) | 2 | 30.4 | active |
| MEMO1 (mediator of cell motility 1) | Rucaparib | OCI-C5x (clear cell) | 3 | 42.8 | active |
| MEMO1 (mediator of cell motility 1) | Rucaparib | OCI-P5x (serous) | 1 | 50.9 | active |
| MEMO1 (mediator of cell motility 1) | Rucaparib | OCI-P5x (serous) | 2 | 53.3 | active |
| MEMO1 (mediator of cell motility 1) | Rucaparib | OCI-P5x (serous) | 3 | 49.4 | active |
| MEMO1 (mediator of cell motility 1) | Vehicle | OCI-C5x (clear cell) | 1 | 44.7 | active |
| MEMO1 (mediator of cell motility 1) | Vehicle | OCI-C5x (clear cell) | 2 | 37.1 | active |
| MEMO1 (mediator of cell motility 1) | Vehicle | OCI-C5x (clear cell) | 3 | 60.3 | active |
| MEMO1 (mediator of cell motility 1) | Vehicle | OCI-P5x (serous) | 1 | 50.6 | active |
| MEMO1 (mediator of cell motility 1) | Vehicle | OCI-P5x (serous) | 2 | 58.8 | active |
| MEMO1 (mediator of cell motility 1) | Vehicle | OCI-P5x (serous) | 3 | 54.5 | active |
| CDK9 (cyclin dependent kinase 9) | Rucaparib | OCI-C5x (clear cell) | 1 | 41.4 | active |
| CDK9 (cyclin dependent kinase 9) | Rucaparib | OCI-C5x (clear cell) | 2 | 47.3 | active |
| CDK9 (cyclin dependent kinase 9) | Rucaparib | OCI-C5x (clear cell) | 3 | 49.1 | active |
| CDK9 (cyclin dependent kinase 9) | Rucaparib | OCI-P5x (serous) | 1 | 75.7 | active |
| CDK9 (cyclin dependent kinase 9) | Rucaparib | OCI-P5x (serous) | 2 | 82.8 | inactive |
| CDK9 (cyclin dependent kinase 9) | Rucaparib | OCI-P5x (serous) | 3 | 79 | active |
| CDK9 (cyclin dependent kinase 9) | Vehicle | OCI-C5x (clear cell) | 1 | 49 | active |
| CDK9 (cyclin dependent kinase 9) | Vehicle | OCI-C5x (clear cell) | 2 | 39 | active |
| CDK9 (cyclin dependent kinase 9) | Vehicle | OCI-C5x (clear cell) | 3 | 40.9 | active |
| CDK9 (cyclin dependent kinase 9) | Vehicle | OCI-P5x (serous) | 1 | 83.7 | inactive |
| CDK9 (cyclin dependent kinase 9) | Vehicle | OCI-P5x (serous) | 2 | 85.4 | inactive |
| CDK9 (cyclin dependent kinase 9) | Vehicle | OCI-P5x (serous) | 3 | 73.6 | active |
| SLC17A1 | Rucaparib | OCI-C5x (clear cell) | 1 | 49.2 | active |
| SLC17A1 | Rucaparib | OCI-C5x (clear cell) | 2 | 44.8 | active |
| SLC17A1 | Rucaparib | OCI-C5x (clear cell) | 3 | 23.8 | active |
| SLC17A1 | Rucaparib | OCI-P5x (serous) | 1 | 48.7 | active |
| SLC17A1 | Rucaparib | OCI-P5x (serous) | 2 | 58.7 | active |
| SLC17A1 | Rucaparib | OCI-P5x (serous) | 3 | 65.5 | active |
| SLC17A1 | Vehicle | OCI-C5x (clear cell) | 1 | 31.6 | active |
| SLC17A1 | Vehicle | OCI-C5x (clear cell) | 2 | 30.1 | active |
| SLC17A1 | Vehicle | OCI-C5x (clear cell) | 3 | 41.6 | active |
| SLC17A1 | Vehicle | OCI-P5x (serous) | 1 | 74.9 | active |
| SLC17A1 | Vehicle | OCI-P5x (serous) | 2 | 70.8 | active |
| SLC17A1 | Vehicle | OCI-P5x (serous) | 3 | 103 | inactive |
